Reference: article PMC7028943
Results are given in words; binding and its absence hold for the method and conditions named. Binding seen in cells or lysates may run through a third protein. Some entries that bind do so weakly or less than the wild type.

Amino acid sequences for entries named in this document (tags omitted).
UniProt Q12824: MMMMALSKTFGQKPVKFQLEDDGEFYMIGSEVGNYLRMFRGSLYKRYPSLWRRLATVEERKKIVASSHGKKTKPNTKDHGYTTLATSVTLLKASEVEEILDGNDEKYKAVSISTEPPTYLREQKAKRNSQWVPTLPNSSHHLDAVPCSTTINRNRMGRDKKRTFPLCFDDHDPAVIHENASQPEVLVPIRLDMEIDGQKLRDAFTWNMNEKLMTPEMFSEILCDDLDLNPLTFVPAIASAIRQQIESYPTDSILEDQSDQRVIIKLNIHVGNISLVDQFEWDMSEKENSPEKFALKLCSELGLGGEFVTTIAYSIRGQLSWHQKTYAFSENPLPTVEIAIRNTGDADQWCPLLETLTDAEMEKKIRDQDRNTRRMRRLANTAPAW
UniProt Q92922: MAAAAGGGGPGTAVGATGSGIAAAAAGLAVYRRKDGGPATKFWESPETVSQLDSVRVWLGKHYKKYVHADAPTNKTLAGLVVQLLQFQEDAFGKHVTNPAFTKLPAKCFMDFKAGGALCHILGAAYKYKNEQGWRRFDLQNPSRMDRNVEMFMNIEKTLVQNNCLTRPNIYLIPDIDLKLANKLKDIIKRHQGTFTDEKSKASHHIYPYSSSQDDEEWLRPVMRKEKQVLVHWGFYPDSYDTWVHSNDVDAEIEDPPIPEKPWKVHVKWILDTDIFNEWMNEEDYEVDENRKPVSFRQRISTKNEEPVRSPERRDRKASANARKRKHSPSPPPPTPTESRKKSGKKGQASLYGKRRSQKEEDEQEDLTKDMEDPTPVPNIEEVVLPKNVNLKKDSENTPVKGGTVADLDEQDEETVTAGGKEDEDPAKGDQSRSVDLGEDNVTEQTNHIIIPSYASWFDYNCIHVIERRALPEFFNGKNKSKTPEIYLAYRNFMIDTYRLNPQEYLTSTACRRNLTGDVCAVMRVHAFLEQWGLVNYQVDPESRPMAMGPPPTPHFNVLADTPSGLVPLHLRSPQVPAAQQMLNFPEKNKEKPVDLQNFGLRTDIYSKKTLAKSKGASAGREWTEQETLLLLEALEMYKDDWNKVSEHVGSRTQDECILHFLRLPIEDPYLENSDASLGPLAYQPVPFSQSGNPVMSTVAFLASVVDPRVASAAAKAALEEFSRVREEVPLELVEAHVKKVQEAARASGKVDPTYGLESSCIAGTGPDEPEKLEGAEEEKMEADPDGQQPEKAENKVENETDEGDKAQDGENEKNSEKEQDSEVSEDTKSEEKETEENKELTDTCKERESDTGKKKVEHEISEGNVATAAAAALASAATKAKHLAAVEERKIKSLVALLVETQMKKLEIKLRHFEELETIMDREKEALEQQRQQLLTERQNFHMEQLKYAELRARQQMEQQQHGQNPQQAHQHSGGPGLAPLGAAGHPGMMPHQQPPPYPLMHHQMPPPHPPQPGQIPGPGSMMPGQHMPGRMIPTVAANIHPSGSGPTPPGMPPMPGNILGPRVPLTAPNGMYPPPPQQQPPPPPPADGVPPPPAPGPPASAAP

Target: SMARCB1 (human (endogenous in BJ fibroblasts)) (UniProt Q12824)
Experiment: co-IP; native immunoprecipitation of endogenous SMARCB1 from nuclear extracts of proliferating (-4OHT) and senescent (+4OHT) BJ fibroblasts; antibody overnight, Dynabeads Protein A or G; protein fraction of the beads analysed by western blot

binding: binds
Substance: SMARCC1 (from UniProt Q92922 1-1105)
